SMILES strings stand for the structures. The list shows a part of the results. Further columns of the screen follow, without active or inactive calls. Most of these compounds were active or inconclusive in the main read-out, so they are no random draw. Words in brackets tell the shape of the fitted curve; partial curves, single points and poor fits give uncertain potencies.

The term AC50 denotes the concentration giving half of the maximal activity seen. A lower AC50 goes with activity at low concentration.

This assay is described as follows: qHTS Assay for Lipid Storage Modulators in Drosophila S3 Cells.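 For cell number change: cells counted by Cell Tracker Red CMTPX staining in the red channel.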 Particulars: BODIPY lipid droplet fluorescence, 18-24 h; for cell number change: measured here: cell count max response, cells fed with added oleic acid. The method in brief: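 Drosophila S3 cells loaded with oleic acid (400 uM, as added) and compounds at several concentrations; lipid droplets imaged by 488-nm laser-scanning cytometry, 500–530 nm intensity and object ratio to cell channel. Percent activity normalized to 20 uM Triacsin C.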
For orientation: Quantitative high-throughput screening tests each substance at several concentrations.

Setting [1] is: measured here: lipid fluorescence (Fed channel) AC50, cells fed with added oleic acid.
[2] abbreviates: measured here: cell number channel AC50, cells fed with added oleic acid.

On to `CC1(C)CC(CCNS(=O)(=O)c2ccccc2)(c2ccccc2)CCO1` (stereo not given), for which the cell number change was -14.8%. Under setting [1], the half-maximal activity concentration (AC50) was 6.51 µM [falling, single point].

Turning to `COc1ccc(C2=NC(CO)(CO)CO2)cc1`, the cell number change was -29.4%.

On to `CNS(=O)(=O)c1cc(OC)ccc1OC`, for which the cell number change was -14.1%. Further, the AC50 under setting [1] is 0.092 µM [falling, full curve, poor fit].

As for `COc1ccccc1-c1cc2nc(C)c(CCC(=O)NCc3ccc(F)cc3)c(C)n2n1`, the concentration at half-maximal activity (AC50) under setting [1] was 29.1 µM [falling, single point].

On to `CCOC(=O)c1nnc(-c2ccccc2)nc1Oc1ccc(Cl)cc1`, for which the cell number change came to 30.5%. Moreover, under setting [2], the AC50 is 32.6 µM [rising, single point]. Besides, under setting [1], the AC50 was 29.1 µM [rising, single point].

Consider `Cc1ccc(C(=O)NCC(=O)OCC(=O)NCC(F)(F)F)cc1`, for which the cell number change was -20.3%.

On to `CCc1ccc(CN(C)C(=O)c2cc(S(=O)(=O)N3CCN(CC)CC3)ccc2Cl)cc1`, for which the cell number change is -22.1%. Besides, under setting [1], the half-maximal activity concentration (AC50) is 6.51 µM [rising, single point].

`CN(C)CCCN(C(=O)c1ccc(S(=O)(=O)N2CCCC2)cc1)c1nc2c(F)cc(F)cc2s1`: the AC50 under setting [2] was 0.58 µM [falling, single point].

Consider `Cc1ccc(NC(=O)Nc2nc3ccccc3s2)cc1NC(=O)Nc1nc2ccccc2s1`, for which the cell number change was -9.68%. For the same compound, under setting [2], the AC50 is 2.91 µM [rising, partial curve, poor fit].

With `CCOC(=O)CSc1nc2c(cnn2-c2ccc(F)cc2)c(=O)[nH]1`, the cell number change is -4.02%. The half-maximal activity concentration (AC50) under setting [1] is 6.51 µM [rising, single point].

With `Cc1ccc(N2C(=O)NC(NS(=O)(=O)c3ccccc3)(C(F)(F)F)C2=O)cc1` (stereo not given), the cell number change was 5.42%. Besides, the half-maximal activity concentration (AC50) under setting [1] was 2.91 µM [falling, partial curve].

For the compound `COc1ccc(NC(=S)N2CCC(c3nc4ccc(Cl)cc4[nH]3)CC2)c(OC)c1`, the cell number change was -18.2%. Further, the half-maximal activity concentration (AC50) under setting [2] is 3.26 µM [falling, full curve, poor fit].

In the case of `Cc1ccc(C)c(C(=O)CSc2nc(C)cc(=O)[nH]2)c1`, the cell number change amounted to 6.04%.

`CN(C)C(=S)SCCn1c(N)nc(N(C)C)nc1=O`: the cell number change was 10.1%.

Take `COc1cc(-c2nc(-c3ccccc3)c(-c3cc([N+](=O)[O-])ccc3C)[nH]2)cc(OC)c1OC`: the cell number change is -23.1%. Further, the AC50 under setting [1] was 29.1 µM [falling, single point].

Turning to `O=C(Nc1ccccc1SCC1CSc2nc3ccccc3c(=O)n21)c1cccc(Cl)c1` (stereo not given), the cell number change came to 42.2%. In addition, under setting [2], the half-maximal activity concentration (AC50) is 3.26 µM [rising, full curve]. Moreover, under setting [1], the half-maximal activity concentration (AC50) was 6.51 µM [rising, full curve].

As to `Cc1ccc(NC(=O)c2cncc(Br)c2)cc1S(=O)(=O)N(C)C`, the cell number change amounted to 12.8%. The half-maximal activity concentration (AC50) under setting [1] is 2.06 µM [rising, partial curve, poor fit].

As for `COc1cccc(CN2CCC(n3nccc3NC(=O)CCCc3ccccc3)CC2)c1`, the cell number change was 3.99%.

For the compound `CNS(=O)(=O)c1cnccc1N1CCN(c2cccc(C)c2)CC1`, the AC50 under setting [2] is 6.51 µM [rising, single point].

As to `CC(/C=C1\SC(=S)N(CCC(=O)Nc2nc(C)cs2)C1=O)=C\c1ccccc1`, the cell number change is 21.9%. Moreover, under setting [1], the AC50 is 29.1 µM [rising, single point].

Take `CC1CCN(C(C(=O)Nc2ccc(C(C)C)cc2)c2ccc3c(c2)OCO3)CC1` (stereo not given): the half-maximal activity concentration (AC50) under setting [1] is 1.16 µM [falling, single point].

Turning to `COC(=O)Cc1cc(=O)[nH]c(/N=C(\N)Nc2ccc(C)cc2)n1`, the cell number change is 81.6%. The AC50 under setting [2] was 1.64 µM [rising, full curve]. Besides, the half-maximal activity concentration (AC50) under setting [1] was 0.58 µM [rising, single point].

Turning to `CC(=O)c1cccc(NC(=O)N2CCCC2C(=O)NC2CCCC2)c1` (stereo not given), the cell number change was determined as 6.41%.

For `CCCCn1c(N)c(N(CCC(C)C)C(=O)c2c(C)noc2C)c(=O)[nH]c1=O`, the cell number change stood at 17.5%.

As to `C/C(Cc1ccccc1)=N\NC(=O)CNC(=O)c1cccc(F)c1`, the cell number change is -30.7%. Besides, under setting [2], the concentration at half-maximal activity (AC50) is 2.31 µM [falling, partial curve, poor fit]. Further, under setting [1], the AC50 was 29.1 µM [falling, single point].

`COc1cccc(/C=N/NC(=O)CN(C)S(=O)(=O)c2ccccc2)c1OC`: the cell number change was found to be 32.1%. In addition, the half-maximal activity concentration (AC50) under setting [1] is 4.11 µM [rising, single point].

Regarding `CCOC(=O)C1=C(C)N(C)C(=S)NC1c1c(OCC)ccc2ccccc12` (stereo not given), under setting [2], the concentration at half-maximal activity (AC50) was 0.731 µM [rising, partial curve, poor fit].

On to `O=C(Cn1cnc2c(nnn2Cc2ccccc2)c1=O)Nc1ccc2c(c1)OCCO2`, for which the cell number change came out at 93.4%. In addition, the AC50 under setting [2] is 29.1 µM [rising, single point].

Regarding `COc1ccc(NC(=O)/C(C#N)=C/c2ccc[nH]2)c(OC)c1`, the cell number change is 26.7%. Further, under setting [1], the AC50 was 3.26 µM [rising, partial curve].

As for `Cc1ccc(OCC(=O)Nc2ccncc2)cc1`, the cell number change is -36%. In addition, under setting [2], the half-maximal activity concentration (AC50) was 23.1 µM [falling, single point]. Also, the concentration at half-maximal activity (AC50) under setting [1] is 16.4 µM [falling, partial curve].

Consider `Cc1cccn2c(=O)c3cc(C(=O)NCc4cccnc4)c(=N)n(CC4CCCO4)c3nc12` (stereo not given), for which the cell number change came out at 15.4%. For the same compound, the half-maximal activity concentration (AC50) under setting [1] is 3.66 µM [falling, partial curve, poor fit].

Regarding `COc1ccc(NC(=O)c2c3c(nc4ccccc24)CCN(Cc2ccccc2)C3)c(OC)c1`, under setting [2], the AC50 is 0.58 µM [rising, single point].

On to `O=C(c1ccccc1-c1ccccc1)N1CCN(c2ccccn2)CC1`, for which the AC50 was 3.26 µM [rising, single point] under setting [2] and 4.61 µM [rising, single point] under setting [1].

Regarding `CCCCc1n(CC(=O)c2ccc(Cl)cc2)c2ccccc2[n+]1C`, the cell number change stood at 0.207%. In addition, the AC50 under setting [2] was 0.00461 µM [falling, full curve, poor fit].

As to `O=C(N/N=C/c1cccs1)c1cccc(NC(=O)c2ccc(Cl)cc2)c1`, the cell number change is -16.3%. Further, under setting [2], the AC50 was 3.66 µM [falling, single point]. In addition, under setting [1], the half-maximal activity concentration (AC50) is 13 µM [falling, partial curve].

As to `CCOC(=O)C1CCCN(C(=O)c2cc(COc3ccc(C)nc3)on2)C1` (stereo not given), the cell number change was -9.25%.

In the case of `CC1(C)CC(=O)C=C(c2cccc(O)c2)C1=O`, the cell number change was -6.14%. For the same compound, under setting [1], the AC50 was 23.1 µM [rising, single point].

For `Cc1ccc(C(=O)OC(C)C(=O)Nc2ccc3c(c2)OCO3)c(O)c1` (stereo not given), the cell number change is -31.7%. Under setting [2], the AC50 was 29.1 µM [falling, partial curve]. For the same compound, under setting [1], the AC50 is 5.8 µM [falling, single point].

With `CCOc1ccc2nc(SCC(=O)N3CCN(C(=O)c4ccco4)CC3)sc2c1`, the cell number change was found to be 26.8%.

The values are drawn from PubChem BioAssay AID2685 (National Center for Advancing Translational Sciences (NCATS), 2010).
